Data taken from the supplement of paper PMC4604168 (melanoma cell lines).
The list shows a part of the results. Single values are uncertain, as repeats are few or missing.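 Cells were imaged in 1,536-well plates, and nuclei stained with an antibody against cleaved PARP were counted against all DNA-stained nuclei to give the apoptosis fraction. Screening doses were chosen to leave most cells alive, and resting and induced cleaved-PARP levels differ strongly between cell lines.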

Experiments:
Assay in all cases: cleaved PARP positive nuclei fraction relative to DMSO control; melanoma cells; higher = more apoptosis
Conditions in all cases: library dose: low library concentration; 72 h
WM115 = test system: WM115
WM1716 = test system: WM1716
WM1745 = test system: WM1745
WM3526 = test system: WM3526
WM3619 = test system: WM3619
WM451Lu = test system: WM451Lu

SMILES	cleaved PARP positive nuclei fraction (WM115) [%]	cleaved PARP positive nuclei fraction (WM1716) [%]	cleaved PARP positive nuclei fraction (WM1745) [%]	cleaved PARP positive nuclei fraction (WM3526) [%]	cleaved PARP positive nuclei fraction (WM3619) [%]	cleaved PARP positive nuclei fraction (WM451Lu) [%]
COc1cc2c(Oc3ccc4[nH]c(C)cc4c3F)ncnc2cc1OCCCN1CCCC1 [cediranib] + O=C(O)C(=O)Nc1sc2c(c1C(=O)O)CCNC2 [TCS401] (first compound 0.4 µM, partner dose 1.66667 µM)	128	96.8	105	63.8	90.7	67.2
COc1cc(N2CCC(N3CCN(C)CC3)CC2)ccc1Nc1ncc(Cl)c(Nc2ccccc2S(=O)(=O)C(C)C)n1 + CCCCCCCCCCCC1=C(O)C(=O)C=C(O)C1=O [Embelin] (first compound 0.08 µM, partner dose 1.2 µM)	128	44.3	116	67.3	83.1	25.3
CCN(CC)CCCCNc1ncc2cc(-c3cc(OC)cc(OC)c3)c(NC(=O)NC(C)(C)C)nc2n1 + Cc1cc([N+](=O)[O-])ccc1NS(=O)(=O)c1cc(Cl)ccc1Cl [FH535] (first compound 0.1 µM, partner dose 1 µM)	162	82.6	116	72.9	116	125
COc1ccc2c(c1)CCC1C2CCC2(C)C(NCCCCCCN3C(=O)C=CC3=O)CCC12 (stereo not given) + CC(C)CCN1c2nc(Nc3cc(F)c(O)c(F)c3)ncc2N(C)C(=O)C1C [BID1870] (first compound 0.4 µM, partner dose 0.2 µM)	134	232	97.7	73.2	165	159
NCC(=O)Nc1ccc(-n2nc(C(F)(F)F)cc2-c2ccc3c(ccc4ccccc43)c2)cc1 + COc1ccc2c(c1)CCC1C2CCC2(C)C(NCCCCCCN3C(=O)C=CC3=O)CCC12 [U73122] (first compound 1 µM, partner dose 0.4 µM)	157	91.6	105	143	79.3	74.4
COC(=O)c1sccc1S(=O)(=O)Nc1ccc(Nc2ccccc2)cc1OC + COc1cc(N2CCC(N3CCN(C)CC3)CC2)ccc1Nc1ncc(Cl)c(Nc2ccccc2S(=O)(=O)C(C)C)n1 [NVP-TAE684] (first compound 1 µM, partner dose 0.08 µM)	148	65.9	115	65.1	75.5	53
CCCCCCCCCCCC1=C(O)C(=O)C=C(O)C1=O [Embelin] + O=c1cc(-c2cccc3c2Sc2ccccc2S3)oc(N2CCOCC2)c1 [KU55933] (first compound 1.2 µM, partner dose 1 µM)	68.4	137	135	70	90.5	83.2
COc1ccc2c(c1)CCC1C2CCC2(C)C(NCCCCCCN3C(=O)C=CC3=O)CCC12 (stereo not given) + O=c1cc(-c2cccc3c2Sc2ccccc2S3)oc(N2CCOCC2)c1 [KU55933] (first compound 0.4 µM, partner dose 1 µM)	100	99.5	110	295	73.2	71.2
CCN(CC)CCCCNc1ncc2cc(-c3cc(OC)cc(OC)c3)c(NC(=O)NC(C)(C)C)nc2n1 + CCCCCCCCCCCC1=C(O)C(=O)C=C(O)C1=O [Embelin] (first compound 0.1 µM, partner dose 1.2 µM)	51	31.8	103	125	72.6	184
COc1cc2ncnc(Nc3ccc(Oc4ccccc4)cc3)c2cc1OC + c1cc(-c2cnn3cc(-c4ccc(OCCN5CCCCC5)cc4)cnc23)ccn1 [Dorsomorphin] (first compound 2 µM, partner dose 0.4 µM)	150	122	119	75.4	84.4	57
